This note sets out measurements from publication PMC4569850.

Protein sequences, listed by entry. Tags and fused reporters are not part of them. Lines headed by an entry give the natural chain unless they say otherwise; changes in a name come on top.
UniProt O35116: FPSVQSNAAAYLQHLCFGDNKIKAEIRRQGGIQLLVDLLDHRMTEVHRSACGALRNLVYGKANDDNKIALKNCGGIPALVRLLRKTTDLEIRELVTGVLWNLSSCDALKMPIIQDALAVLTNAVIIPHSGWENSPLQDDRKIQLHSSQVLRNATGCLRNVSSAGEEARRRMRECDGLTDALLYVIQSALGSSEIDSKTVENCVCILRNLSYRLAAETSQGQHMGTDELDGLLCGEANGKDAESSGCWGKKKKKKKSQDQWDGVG
UniProt Q2THW7: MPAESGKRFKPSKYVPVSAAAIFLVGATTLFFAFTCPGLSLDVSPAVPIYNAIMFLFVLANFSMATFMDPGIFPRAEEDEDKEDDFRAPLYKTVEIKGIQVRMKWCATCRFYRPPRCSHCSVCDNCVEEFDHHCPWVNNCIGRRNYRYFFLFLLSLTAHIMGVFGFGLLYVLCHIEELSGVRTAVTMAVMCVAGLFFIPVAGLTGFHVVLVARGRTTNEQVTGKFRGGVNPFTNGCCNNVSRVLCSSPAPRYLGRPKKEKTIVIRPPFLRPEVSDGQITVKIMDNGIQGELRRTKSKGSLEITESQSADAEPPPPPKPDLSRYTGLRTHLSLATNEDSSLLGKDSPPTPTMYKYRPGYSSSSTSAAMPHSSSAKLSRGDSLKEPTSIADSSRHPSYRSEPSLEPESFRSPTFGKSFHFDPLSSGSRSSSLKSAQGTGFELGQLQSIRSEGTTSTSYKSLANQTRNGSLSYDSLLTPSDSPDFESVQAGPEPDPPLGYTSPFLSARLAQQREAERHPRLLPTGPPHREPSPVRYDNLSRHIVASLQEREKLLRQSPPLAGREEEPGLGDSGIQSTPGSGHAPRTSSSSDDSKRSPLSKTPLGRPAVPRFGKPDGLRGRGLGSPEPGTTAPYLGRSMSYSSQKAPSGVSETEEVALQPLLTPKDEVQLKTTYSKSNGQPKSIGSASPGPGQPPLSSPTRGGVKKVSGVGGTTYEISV

These are yes or no findings as the source states them, for the method shown. Binding seen in cells or lysates may run through a third protein. Binding calls can cover weak binding; strength is not graded here.

Test [1] concerns the target δ-catenin, endogenous in hippocampal neurons (rat (endogenous in hippocampal neurons)) (UniProt O35116). Nature of the test: co-IP; 14-16 DIV rat hippocampal neurons, unstimulated or lysed at time points after cLTP (glycine) stimulation; lysates incubated overnight at 4 °C with the antibody, protein A/G-Sepharose, four washes with lysis buffer, immunoblot. In general terms: Immunoblotting shows a protein as a band on a membrane.

Test [2] deals with DHHC5 (palmitoyl-acyl transferase), endogenous in hippocampal neurons (rat (endogenous in hippocampal neurons)) (UniProt Q2THW7). The description is as above.

On to “DHHC5 (palmitoyl-acyl transferase), endogenous in hippocampal neurons (from UniProt Q2THW7 1-715) (enzyme)”, for which, in test [1], the binding entry is reported as “binds”. Consider “δ-catenin, endogenous in hippocampal neurons (from UniProt O35116)”, for which the binding result in test [2] was “binds”.
